Experimental findings from US20100323062A1, “BIOPROCESSING OF GRAINS” (GRAIN FOODS CRC LTD, priority 2006, published 2010) are described below.

One data set has as its system Wheat cv. Wedgetail. As to the kind of experiment: Laboratory Buhler test mill milling after conditioning with plant hormones. Conditions: hormone 1.5 mg/kg crop kernel.
The next data set has as its system wheat. Kind of data set: Flour yield over many observations using ABA at different concentrations.
The mark [1] stands for this setting: nominal conditioning time 12 hours.
Setting [2] is: nominal conditioning time 16 hours.
Setting [3] is: nominal conditioning time 20 hours.
Setting [4] is: nominal conditioning time 24 hours.

As for `CC1=CC(=O)CC(C)(C)C1(O)/C=C/C(C)=C\C(=O)O` (stereo not drawn) [ABA, absicisic acid], the “Flour Yield (%)” value in the data set on Wheat cv. Wedgetail (setting [1]) was found to be 78.6%; in the data set on Wheat cv. Wedgetail (setting [2]), 78.4%; in the data set with Wheat cv. Wedgetail (setting [3]) it was 78.0%; with Wheat cv. Wedgetail (setting [4]), 78.4%. Besides, the “flour yield versus control” value in the data set with wheat (1 mg/kg crop kernel) was “No increase in flour yield”; with wheat (2 mg ABA per kg crop kernel, wheat sample 2 kg or 5 kg), “flour yield increases”; in the data set with wheat (4 mg/kg crop kernel), “flour yield increased”.

As for `C=C1C[C@]23C[C@@]1(O)CC[C@H]2[C@@]12C=C[C@H](O)[C@@](C)(C(=O)O1)[C@H]2[C@@H]3C(=O)O` [GA3, gibberellic acid], the “Flour Yield (%)” value in the data set on Wheat cv. Wedgetail (setting [1]) was 77.9%; with Wheat cv. Wedgetail (setting [2]) it was 78.3%; in the data set with Wheat cv. Wedgetail (setting [3]), 78.1%; in the data set with Wheat cv. Wedgetail (setting [4]), 78.0%.

In the case of indole acetic acid [IAA], the “Flour Yield (%)” value with Wheat cv. Wedgetail (setting [1]) came out at 78.2%; in the data set with Wheat cv. Wedgetail (setting [2]), 78.1%; with Wheat cv. Wedgetail (setting [3]) it was 77.9%; in the data set with Wheat cv. Wedgetail (setting [4]), 78.3%.
